Taken from: PubChem BioAssay AID1259287 (Sanger Institute, 2017)

Test: 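Follow-up of selected drug and gene pairs in HCT15 cells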 (follow-up of hits)
System: human HCT15 colorectal cancer cells
Reagent: single siRNA against human genes
Conditions: BYL719 1 µM, cetuximab 5 µg/ml or trametinib 10 nM, or DMSO vehicle
Measured: 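Survival scaled to control siRNA wells, then a synergy score per drug giving combined effect beyond the expected one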
Scale: synergy score with BYL719 and synergy score with cetuximab and synergy score with trametinib: higher = stronger combined killing than expected
Hit rule: 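a hit if BYL719, cetuximab or trametinib yields synergy greater than 0.10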
Calls: active = synergy with at least one drug; inactive = no synergy with any drug
The whole screen tested 160 reagents; shown is a part drawn at random. 19 of them (12%) count as active. 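Viability seems capped at 1; calls apply to HCT15 cells only, not to validation across other lines.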 The numbers tell different reagents against one gene apart. Not all columns of the deposit are shown. No sequences are given here. The record does not give: the amount of reagent, the time to read-out.

PAK1 (p21 (RAC1) activated kinase 1) #1 gave synergy score with BYL719 = -0.0722; synergy score with cetuximab -0.228; synergy score with trametinib -0.0183; inactive.
Depletion of PAK1 (p21 (RAC1) activated kinase 1) #2 came out at: synergy score with BYL719 = 0.0482; synergy score with cetuximab -0.0697; synergy score with trametinib 0.0269; inactive.
For PAK1 (p21 (RAC1) activated kinase 1) #3, the entry reads synergy score with BYL719 = 0.105; synergy score with cetuximab -0.128; synergy score with trametinib 0.119; active.
With knock-down of PAK1 (p21 (RAC1) activated kinase 1) #4 the results were synergy score with BYL719 = 0.00197; synergy score with cetuximab -0.142; synergy score with trametinib -0.0967; inactive.
Knock-down of NLK (nemo like kinase) #1 gave: synergy score with BYL719 = -0.0949; synergy score with cetuximab -0.0977; synergy score with trametinib 0.0397; inactive.
NLK (nemo like kinase) #2 showed synergy score with BYL719 = -0.0169; synergy score with cetuximab -0.175; synergy score with trametinib 0.0266; inactive.
Depletion of NLK (nemo like kinase) #3 resulted in: synergy score with BYL719 = -0.254; synergy score with cetuximab -0.169; synergy score with trametinib -0.177; inactive.
Knock-down of NLK (nemo like kinase) #4 resulted in: synergy score with BYL719 = -0.159; synergy score with cetuximab -0.0743; synergy score with trametinib 0.0251; inactive.

Part of the list above, set out differently.
gene,reagent,synergy score with BYL719,synergy score with cetuximab,synergy score with trametinib,outcome
PAK1 (p21 (RAC1) activated kinase 1),4,0.00197,-0.142,-0.0967,inactive
NLK (nemo like kinase),1,-0.0949,-0.0977,0.0397,inactive

The list goes on:
For GRK5 (G protein-coupled receptor kinase 5) #1 the deposit lists synergy score with BYL719 = -0.165; synergy score with cetuximab -0.0255; synergy score with trametinib -0.127; inactive.
Silencing of GRK5 (G protein-coupled receptor kinase 5) #2 resulted in: synergy score with BYL719 = -0.111; synergy score with cetuximab -0.0844; synergy score with trametinib -0.163; inactive.
For GRK5 (G protein-coupled receptor kinase 5) #3 the deposit lists synergy score with BYL719 = -0.0569; synergy score with cetuximab -0.0159; synergy score with trametinib -0.086; inactive.
GRK5 (G protein-coupled receptor kinase 5) #4 scored synergy score with BYL719 = -0.0865; synergy score with cetuximab -0.0814; synergy score with trametinib -0.109; inactive.
For EPHA6 (EPH receptor A6) #1, the values are synergy score with BYL719 = -0.105; synergy score with cetuximab 0.0739; synergy score with trametinib -0.0108; inactive.
Depletion of EPHA6 (EPH receptor A6) #2 came out at: synergy score with BYL719 = 0.116; synergy score with cetuximab -0.146; synergy score with trametinib 0.0241; active.
For EPHA6 (EPH receptor A6) #3, the entry reads synergy score with BYL719 = -0.018; synergy score with cetuximab -0.026; synergy score with trametinib 0.013; inactive.
Silencing of EPHA6 (EPH receptor A6) #4 gave: synergy score with BYL719 = -0.0155; synergy score with cetuximab -0.0642; synergy score with trametinib -0.0739; inactive.
